The target in this assay is Foxk1 (mouse (endogenous in C2C12)) (UniProt P42128). Description: co-IP; C2C12 myotubes (differentiated 8 days, 1 uM insulin for 6 hr before harvest), lysed in IP buffer (50 mM Tris-HCl pH 8.0, 5 mM EDTA, 150 mM NaCl, 0.5% NP-40, 0.5% Triton X-100), incubated with specific antibodies, Dynabeads protein A/G, western blot. On the technique in general: Immunoblotting shows a protein as a band on a membrane.

The chains behind the UniProt entries cited, without tags or fusion partners.
UniProt P42128: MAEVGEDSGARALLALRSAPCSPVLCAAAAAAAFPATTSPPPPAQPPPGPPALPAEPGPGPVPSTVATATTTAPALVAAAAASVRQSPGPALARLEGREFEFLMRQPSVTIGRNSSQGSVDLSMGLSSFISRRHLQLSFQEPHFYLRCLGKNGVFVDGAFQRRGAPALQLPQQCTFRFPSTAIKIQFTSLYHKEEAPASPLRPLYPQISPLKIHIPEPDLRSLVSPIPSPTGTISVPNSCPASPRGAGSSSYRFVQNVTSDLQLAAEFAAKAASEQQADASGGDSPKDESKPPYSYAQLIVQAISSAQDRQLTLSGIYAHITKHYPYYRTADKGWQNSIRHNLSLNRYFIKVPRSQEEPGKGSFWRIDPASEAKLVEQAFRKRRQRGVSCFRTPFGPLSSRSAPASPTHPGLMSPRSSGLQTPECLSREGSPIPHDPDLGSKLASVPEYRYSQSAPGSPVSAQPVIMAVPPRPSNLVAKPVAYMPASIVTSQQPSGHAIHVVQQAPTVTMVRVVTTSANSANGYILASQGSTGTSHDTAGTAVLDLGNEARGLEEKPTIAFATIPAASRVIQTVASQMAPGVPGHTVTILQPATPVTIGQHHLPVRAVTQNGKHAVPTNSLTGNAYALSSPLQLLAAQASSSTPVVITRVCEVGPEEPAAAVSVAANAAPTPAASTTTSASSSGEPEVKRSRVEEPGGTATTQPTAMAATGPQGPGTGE

No constants are given. Whether binding was seen depends on the method and setting. Binding seen in cells or lysates may run through a third protein. Some entries that bind do so weakly or less than the wild type.

B1: Sin3A (protein, UniProt Q60520 1-1274)
chain: MKRRLDDQESPVYAAQQRRIPGSTEAFSHQHRVLAPAPPVYEAVSETMQSATGIQYSVAPNYQVSAVPQSSGSHGPAIAAVHSSHHHPTAVQPHGGQVVQSHAHPAPPVAPVQGQQQFQRLKVEDALSYLDQVKLQFGSQPQVYNDFLDIMKEFKSQSIDTPGVISRVSQLFKGHPDLIMGFNTFLPPGYKIEVQTNDMVNVTTPGQVHQIPTHGIQPQPQPPPQHPSQPSSQSAPTPAQPAPQPTAAKVSKPSQLQAHTPASQQTPPLPPYASPRSPPVQPHTPVTISLGTAPSLQNNQPVEFNHAINYVNKIKNRFQGQPDIYKAFLEILHTYQKEQRNAKEAGGNYTPALTEQEVYAQVARLFKNQEDLLSEFGQFLPDANSSVLLSKTTAEKVDSVRNDHGGTVKKPQLNNKPQRPSQNGCQIRRHSGTGATPPVKKKPKLMSLKESSMADASKHGVGTESLFFDKVRKALRSAEAYENFLRCLVIFNQEVISRAELVQLVSPFLGKFPELFNWFKNFLGYKESVHLESFPKERATEGIAMEIDYASCKRLGSSYRALPKSYQQPKCTGRTPLCKEVLNDTWVSFPSWSEDSTFVSSKKTQYEEHIYRCEDERFELDVVLETNLATIRVLEAIQKKLSRLSAEEQAKFRLDNTLGGTSEVIHRKALQRIYADKAADIIDGLRKNPSIAVPIVLKRLKMKEEEWREAQRGFNKVWREQNEKYYLKSLDHQGINFKQNDTKVLRSKSLLNEIESIYDERQEQATEENAGVPVGPHLSLAYEDKQILEDAAALIIHHVKRQTGIQKEDKYKIKQIMHHFIPDLLFAQRGDLSDVEEEEEEEMDVDEATGAPKKHNGVGGSPPKSKLLFSNTAAQKLRGMDEVYNLFYVNNNWYIFMRLHQILCLRLLRICSQAERQIEEENREREWEREVLGIKRDKSDSPAIQLRLKEPMDVDVEDYYPAFLDMVRSLLDGNIDSSQYEDSLREMFTIHAYIAFTMDKLIQSIVRQLQHIVSDEVCVQVTDLYLAENNNGATGGQLNSQTSRSLLESAYQRKAEQLMSDENCFKLMFIQSQGQVQLTVELLDTEEENSDDPVEAERWSDYVERYMSSDTTSPELREHLAQKPVFLPRNLRRIRKCQRGREQQEKEGKEGNSKKTMENVESLDKLECRFKLNSYKMVYVIKSEDYMYRRTALLRAHQSHERVSKRLHQRFQAWVDKWTKEHVPREMAAETSKWLMGEGLEGLVPCTTTCDTETLHFVSINKYRVKYGTVFKAP
On to B1, for which the binding entry is listed as “binds”.

Source of the values: publication PMC9876571.
